Results taken from patent US20030232420A1.
These are yes or no findings as the source states them, for the method shown. Some binding calls cover weakened binding; strength is not graded here.

Amino acid sequences for entries named in this document (tags omitted). A change or cut given only in a name is not applied to a line headed by its entry.
UniProt P12367: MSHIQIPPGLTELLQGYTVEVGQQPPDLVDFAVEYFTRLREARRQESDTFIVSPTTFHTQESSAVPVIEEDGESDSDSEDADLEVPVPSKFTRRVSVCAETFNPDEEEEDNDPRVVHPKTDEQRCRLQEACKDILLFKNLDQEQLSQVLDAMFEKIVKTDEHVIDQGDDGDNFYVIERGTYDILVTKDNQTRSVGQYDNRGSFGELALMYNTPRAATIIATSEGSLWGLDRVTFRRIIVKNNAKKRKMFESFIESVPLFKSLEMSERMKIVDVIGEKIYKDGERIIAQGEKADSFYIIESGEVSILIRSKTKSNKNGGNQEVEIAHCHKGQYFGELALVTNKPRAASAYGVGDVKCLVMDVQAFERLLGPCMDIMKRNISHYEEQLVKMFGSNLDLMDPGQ

Biological target: RIIα isoform of the PKA regulatory subunit (Mus musculus (Mouse)) (UniProt P12367)
Assay: fluorescence anisotropy

## VQGNTDEAQEELAWKIAKMIVSDVMQQC (tetramethylrhodamine-5-maleimide on the C-terminal Cys; C-terminal amide) [AKB (dual), WT (SEQ ID NO:108) …, rhodamine-labeled]
  binding: binds
